These are yes or no findings as the source states them, for the method shown. Binding seen in cells or lysates may run through a third protein. Some results given as binding are weak or reduced against the parent protein; the word gives no strength.

Chains of the proteins cited; added tags and fusions are not shown.
UniProt P27986: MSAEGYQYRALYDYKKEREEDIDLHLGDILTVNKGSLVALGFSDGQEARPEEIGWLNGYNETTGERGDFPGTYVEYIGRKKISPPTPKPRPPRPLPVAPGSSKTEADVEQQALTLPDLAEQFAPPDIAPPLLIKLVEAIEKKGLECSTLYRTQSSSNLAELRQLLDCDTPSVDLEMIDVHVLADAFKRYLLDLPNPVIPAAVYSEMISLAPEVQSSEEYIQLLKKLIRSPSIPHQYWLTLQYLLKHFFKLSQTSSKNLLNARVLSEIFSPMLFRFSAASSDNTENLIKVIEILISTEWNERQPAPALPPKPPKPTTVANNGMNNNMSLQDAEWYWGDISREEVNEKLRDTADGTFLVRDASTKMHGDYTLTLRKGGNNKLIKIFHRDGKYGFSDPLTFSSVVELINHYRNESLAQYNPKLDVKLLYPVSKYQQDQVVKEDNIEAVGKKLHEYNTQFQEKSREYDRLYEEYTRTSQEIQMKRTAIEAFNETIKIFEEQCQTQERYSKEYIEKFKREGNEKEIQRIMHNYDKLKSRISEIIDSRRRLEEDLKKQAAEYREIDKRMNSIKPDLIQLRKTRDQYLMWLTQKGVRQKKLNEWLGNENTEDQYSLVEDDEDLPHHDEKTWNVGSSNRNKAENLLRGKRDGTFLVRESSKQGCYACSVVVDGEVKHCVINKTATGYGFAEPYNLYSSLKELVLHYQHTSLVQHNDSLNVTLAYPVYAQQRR
UniProt Q96B97: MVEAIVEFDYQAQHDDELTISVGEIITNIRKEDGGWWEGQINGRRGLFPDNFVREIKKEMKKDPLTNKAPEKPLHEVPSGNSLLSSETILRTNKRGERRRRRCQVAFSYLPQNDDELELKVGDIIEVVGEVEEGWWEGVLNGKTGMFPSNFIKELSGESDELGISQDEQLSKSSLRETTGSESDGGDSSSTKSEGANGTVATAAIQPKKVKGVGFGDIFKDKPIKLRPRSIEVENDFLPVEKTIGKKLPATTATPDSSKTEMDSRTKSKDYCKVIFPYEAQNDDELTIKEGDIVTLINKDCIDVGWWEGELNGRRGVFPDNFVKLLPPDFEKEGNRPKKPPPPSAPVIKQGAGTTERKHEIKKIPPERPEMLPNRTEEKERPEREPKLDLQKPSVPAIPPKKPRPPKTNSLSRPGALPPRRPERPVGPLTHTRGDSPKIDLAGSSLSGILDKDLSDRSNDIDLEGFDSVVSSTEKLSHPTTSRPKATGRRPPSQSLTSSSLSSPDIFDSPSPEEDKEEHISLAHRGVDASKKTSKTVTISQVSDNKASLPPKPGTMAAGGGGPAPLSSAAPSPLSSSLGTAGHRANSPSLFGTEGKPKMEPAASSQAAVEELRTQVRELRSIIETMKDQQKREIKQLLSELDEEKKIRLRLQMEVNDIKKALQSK

One assay has as its target PIK3R1-GFP (UniProt P27986). The experiment in a line: co-IP.
The target of assay [1] is T1, Septin6 (human (endogenous in MDA-MB-231)) (UniProt Q14141).
T1 sequence: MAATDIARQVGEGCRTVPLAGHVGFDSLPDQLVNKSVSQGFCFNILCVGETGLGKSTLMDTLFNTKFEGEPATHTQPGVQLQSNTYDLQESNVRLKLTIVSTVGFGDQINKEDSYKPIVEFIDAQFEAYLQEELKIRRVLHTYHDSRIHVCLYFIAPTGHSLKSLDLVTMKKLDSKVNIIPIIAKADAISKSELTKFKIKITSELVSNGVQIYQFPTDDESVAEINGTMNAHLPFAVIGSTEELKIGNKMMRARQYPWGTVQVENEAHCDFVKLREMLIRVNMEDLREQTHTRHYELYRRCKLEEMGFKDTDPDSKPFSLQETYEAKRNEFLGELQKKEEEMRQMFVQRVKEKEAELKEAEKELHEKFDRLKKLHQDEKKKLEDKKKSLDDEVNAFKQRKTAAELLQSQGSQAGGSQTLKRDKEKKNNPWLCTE
The experiment in a line: co-IP.

As to “WT-SH3KBP1-Flag (from UniProt Q96B97 1-665)”, the binding entry (with PIK3R1-GFP; in assay [1]) was “binds” each time.

The record behind these values is article doi:10.1101/2024.07.09.602823.
